According to article PMC7666136:
These are yes or no findings as the source states them, for the method shown. For some assays here: In cells and extracts the contact can be indirect. Some binding calls cover weakened binding; strength is not graded here. Each block holds one substance with its values, some of them ahead of it.

Protein sequences, listed by entry. Tags and fused reporters are not part of them. Lines headed by an entry give the natural chain unless they say otherwise; changes in a name come on top. Chains listed by the source or under a name are the forms on record and can include a tag or linker.
UniProt Q12888: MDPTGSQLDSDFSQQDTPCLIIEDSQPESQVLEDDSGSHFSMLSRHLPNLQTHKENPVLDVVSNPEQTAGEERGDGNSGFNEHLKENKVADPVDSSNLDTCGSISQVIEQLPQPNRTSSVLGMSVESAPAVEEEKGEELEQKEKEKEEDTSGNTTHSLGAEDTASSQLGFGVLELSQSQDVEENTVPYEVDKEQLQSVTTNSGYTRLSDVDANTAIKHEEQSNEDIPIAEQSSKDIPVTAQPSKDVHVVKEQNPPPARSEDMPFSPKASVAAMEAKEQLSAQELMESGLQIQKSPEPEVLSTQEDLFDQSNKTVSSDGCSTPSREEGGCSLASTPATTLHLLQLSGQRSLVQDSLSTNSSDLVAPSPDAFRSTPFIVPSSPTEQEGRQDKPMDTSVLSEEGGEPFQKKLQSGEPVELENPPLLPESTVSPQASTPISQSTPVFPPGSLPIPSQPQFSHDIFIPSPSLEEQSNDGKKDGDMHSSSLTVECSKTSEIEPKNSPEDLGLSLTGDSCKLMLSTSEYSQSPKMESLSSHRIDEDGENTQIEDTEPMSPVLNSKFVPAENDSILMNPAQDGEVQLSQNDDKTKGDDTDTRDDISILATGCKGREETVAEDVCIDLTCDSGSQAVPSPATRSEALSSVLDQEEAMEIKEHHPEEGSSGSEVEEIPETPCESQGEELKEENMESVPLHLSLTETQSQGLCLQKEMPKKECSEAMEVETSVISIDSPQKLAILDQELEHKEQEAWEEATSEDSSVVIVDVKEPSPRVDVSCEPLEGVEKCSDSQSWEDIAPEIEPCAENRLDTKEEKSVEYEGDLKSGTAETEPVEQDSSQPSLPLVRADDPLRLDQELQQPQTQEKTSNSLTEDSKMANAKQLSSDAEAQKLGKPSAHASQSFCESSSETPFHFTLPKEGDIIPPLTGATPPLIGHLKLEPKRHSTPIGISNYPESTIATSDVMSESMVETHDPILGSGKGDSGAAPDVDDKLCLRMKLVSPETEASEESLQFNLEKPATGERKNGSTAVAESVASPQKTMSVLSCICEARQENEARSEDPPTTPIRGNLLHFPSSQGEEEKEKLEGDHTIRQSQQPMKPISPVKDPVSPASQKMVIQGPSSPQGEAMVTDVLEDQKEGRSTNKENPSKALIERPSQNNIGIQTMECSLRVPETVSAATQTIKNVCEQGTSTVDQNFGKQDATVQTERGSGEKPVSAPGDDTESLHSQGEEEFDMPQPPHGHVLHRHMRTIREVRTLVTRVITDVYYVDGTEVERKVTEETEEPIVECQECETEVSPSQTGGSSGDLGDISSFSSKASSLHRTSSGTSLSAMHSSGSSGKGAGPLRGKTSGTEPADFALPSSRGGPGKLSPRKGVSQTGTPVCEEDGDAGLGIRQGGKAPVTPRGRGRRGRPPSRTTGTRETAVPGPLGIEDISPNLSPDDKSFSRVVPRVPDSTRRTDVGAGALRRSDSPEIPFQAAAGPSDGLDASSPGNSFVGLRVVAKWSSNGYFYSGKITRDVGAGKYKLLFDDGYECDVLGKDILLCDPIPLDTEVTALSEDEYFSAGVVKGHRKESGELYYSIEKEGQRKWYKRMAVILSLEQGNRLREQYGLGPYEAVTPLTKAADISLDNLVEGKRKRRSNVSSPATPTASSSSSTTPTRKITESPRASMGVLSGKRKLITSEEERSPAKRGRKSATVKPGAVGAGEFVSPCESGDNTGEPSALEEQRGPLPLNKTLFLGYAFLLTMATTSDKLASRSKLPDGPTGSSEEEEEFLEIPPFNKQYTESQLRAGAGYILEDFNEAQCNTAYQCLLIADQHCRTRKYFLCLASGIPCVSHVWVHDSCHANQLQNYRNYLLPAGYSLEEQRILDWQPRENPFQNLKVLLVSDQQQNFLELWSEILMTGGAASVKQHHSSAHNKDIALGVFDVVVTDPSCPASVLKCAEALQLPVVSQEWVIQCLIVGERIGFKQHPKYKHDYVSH
eGFP-53BP1^YY1258,1259AA (Q12888, form named): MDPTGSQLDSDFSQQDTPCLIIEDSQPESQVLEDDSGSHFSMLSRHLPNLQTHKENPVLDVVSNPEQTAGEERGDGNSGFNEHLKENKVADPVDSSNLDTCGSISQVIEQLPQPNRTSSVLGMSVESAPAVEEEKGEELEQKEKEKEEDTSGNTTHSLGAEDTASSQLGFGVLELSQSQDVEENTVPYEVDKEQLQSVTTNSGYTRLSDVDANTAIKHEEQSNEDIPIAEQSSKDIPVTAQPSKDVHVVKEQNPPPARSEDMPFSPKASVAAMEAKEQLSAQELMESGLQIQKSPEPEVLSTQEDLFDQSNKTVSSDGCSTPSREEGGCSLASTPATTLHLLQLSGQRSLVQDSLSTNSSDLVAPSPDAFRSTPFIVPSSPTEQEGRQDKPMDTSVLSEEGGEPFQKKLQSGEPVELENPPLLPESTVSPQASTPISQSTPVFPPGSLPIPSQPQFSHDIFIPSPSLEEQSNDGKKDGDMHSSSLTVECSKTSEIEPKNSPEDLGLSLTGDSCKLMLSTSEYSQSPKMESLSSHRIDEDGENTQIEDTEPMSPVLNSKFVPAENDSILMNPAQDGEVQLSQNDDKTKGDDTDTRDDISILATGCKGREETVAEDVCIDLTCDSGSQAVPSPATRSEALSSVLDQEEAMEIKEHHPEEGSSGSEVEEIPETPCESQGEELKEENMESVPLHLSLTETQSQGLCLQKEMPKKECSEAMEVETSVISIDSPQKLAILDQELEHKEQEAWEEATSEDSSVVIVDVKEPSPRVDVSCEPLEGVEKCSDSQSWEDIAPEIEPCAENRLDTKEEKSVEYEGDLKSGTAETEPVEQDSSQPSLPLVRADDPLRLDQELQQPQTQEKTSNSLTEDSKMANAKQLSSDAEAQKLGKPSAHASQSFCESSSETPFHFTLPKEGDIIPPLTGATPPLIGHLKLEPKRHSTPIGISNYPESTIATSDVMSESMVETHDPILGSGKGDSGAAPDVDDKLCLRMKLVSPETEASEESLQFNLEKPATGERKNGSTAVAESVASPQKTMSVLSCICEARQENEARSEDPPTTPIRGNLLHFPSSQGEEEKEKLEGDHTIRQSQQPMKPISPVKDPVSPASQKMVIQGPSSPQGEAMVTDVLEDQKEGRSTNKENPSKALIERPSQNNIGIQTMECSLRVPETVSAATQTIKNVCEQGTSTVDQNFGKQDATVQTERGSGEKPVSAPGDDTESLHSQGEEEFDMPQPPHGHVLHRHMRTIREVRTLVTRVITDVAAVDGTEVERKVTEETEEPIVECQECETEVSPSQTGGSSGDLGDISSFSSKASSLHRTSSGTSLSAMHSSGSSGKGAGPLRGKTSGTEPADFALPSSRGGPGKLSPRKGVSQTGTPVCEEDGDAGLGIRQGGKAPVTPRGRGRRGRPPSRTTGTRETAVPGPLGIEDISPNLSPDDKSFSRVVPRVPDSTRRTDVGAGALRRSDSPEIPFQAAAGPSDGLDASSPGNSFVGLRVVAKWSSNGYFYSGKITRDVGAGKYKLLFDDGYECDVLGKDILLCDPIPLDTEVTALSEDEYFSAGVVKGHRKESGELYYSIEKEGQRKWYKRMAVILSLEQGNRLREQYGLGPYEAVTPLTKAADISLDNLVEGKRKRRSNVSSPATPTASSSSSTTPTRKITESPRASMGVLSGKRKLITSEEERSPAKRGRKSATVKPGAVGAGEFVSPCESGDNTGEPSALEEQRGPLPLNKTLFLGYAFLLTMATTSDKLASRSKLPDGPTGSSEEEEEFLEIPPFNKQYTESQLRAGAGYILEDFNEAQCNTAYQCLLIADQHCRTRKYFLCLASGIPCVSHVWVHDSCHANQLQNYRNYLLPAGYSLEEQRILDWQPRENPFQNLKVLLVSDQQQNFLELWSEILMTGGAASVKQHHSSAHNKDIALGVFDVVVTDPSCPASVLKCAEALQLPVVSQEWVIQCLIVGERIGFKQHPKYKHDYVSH

What was measured:
eGFP-53BP1^D1521R [1] = target: eGFP-53BP1^D1521R (UniProt Q12888); experiment: cross-pair correlation function (cross-pCF) analysis, two-colour fluorescence cross-correlation; two-channel line scans in live DIvA cells co-transfected with eGFP- and mKate2-tagged copies of the same 53BP1 construct, treated with 4OHT for 60 min; dimer fraction from cross pCF0 against pCF0, corrected for spectral bleed through
eGFP-53BP1^D1521R [2] = target: eGFP-53BP1^D1521R (UniProt Q12888); experiment: Number and Brightness (NB) analysis of fluorescence fluctuation spectroscopy; frame scans in nuclei of live DIvA cells expressing eGFP-tagged 53BP1 constructs, 37 °C, brightness windows calibrated on free eGFP (B monomer 1.15, dimer 1.30, oligomer >1.60); before and 30-60 min after 4OHT induction of DSBs; also after knockdown of endogenous 53BP1
eGFP-53BP1^K1814M [3] = target: eGFP-53BP1^K1814M (UniProt Q12888); experiment: cross-pair correlation function (cross-pCF) analysis, two-colour fluorescence cross-correlation; two-channel line scans in live DIvA cells co-transfected with eGFP- and mKate2-tagged copies of the same 53BP1 construct, treated with 4OHT for 60 min; dimer fraction from cross pCF0 against pCF0, corrected for spectral bleed through
eGFP-53BP1^K1814M [4] = target: eGFP-53BP1^K1814M (UniProt Q12888); experiment: Number and Brightness (NB) analysis of fluorescence fluctuation spectroscopy; frame scans in nuclei of live DIvA cells expressing eGFP-tagged 53BP1 constructs, 37 °C, brightness windows calibrated on free eGFP (B monomer 1.15, dimer 1.30, oligomer >1.60); before and 30-60 min after 4OHT induction of DSBs; also after knockdown of endogenous 53BP1
eGFP-53BP1^L1619A [5] = target: eGFP-53BP1^L1619A (UniProt Q12888); experiment: cross-pair correlation function (cross-pCF) analysis, two-colour fluorescence cross-correlation; two-channel line scans in live DIvA cells co-transfected with eGFP- and mKate2-tagged copies of the same 53BP1 construct, treated with 4OHT for 60 min; dimer fraction from cross pCF0 against pCF0, corrected for spectral bleed through
eGFP-53BP1^L1619A [6] = target: eGFP-53BP1^L1619A (UniProt Q12888); experiment: Number and Brightness (NB) analysis of fluorescence fluctuation spectroscopy; frame scans in nuclei of live DIvA cells expressing eGFP-tagged 53BP1 constructs, 37 °C, brightness windows calibrated on free eGFP (B monomer 1.15, dimer 1.30, oligomer >1.60); before and 30-60 min after 4OHT induction of DSBs; also after knockdown of endogenous 53BP1
eGFP-53BP1^YY1258,1259AA [7] = target: eGFP-53BP1^YY1258,1259AA (UniProt Q12888); experiment: FRET or BRET; homo-FRET by fluorescence anisotropy imaging microscopy (FAIM) of eGFP-tagged 53BP1 constructs in live DIvA cells; delta r against free eGFP (r 0.32); before and after 4OHT
eGFP-53BP1^YY1258,1259AA [8] = target: eGFP-53BP1^YY1258,1259AA (UniProt Q12888); experiment: Number and Brightness (NB) analysis of fluorescence fluctuation spectroscopy; frame scans in nuclei of live DIvA cells expressing eGFP-tagged 53BP1 constructs, 37 °C, brightness windows calibrated on free eGFP (B monomer 1.15, dimer 1.30, oligomer >1.60); before and 30-60 min after 4OHT induction of DSBs; also after knockdown of endogenous 53BP1

- binding (eGFP-53BP1^D1521R [1]): binds
- binding (eGFP-53BP1^D1521R [2]): binds
Substance: eGFP-53BP1^D1521R (from UniProt Q12888 1-1972)

- binding (eGFP-53BP1^K1814M [3]): binds
- binding (eGFP-53BP1^K1814M [4]): binds
Substance: eGFP-53BP1^K1814M (from UniProt Q12888 1-1972)

- binding (eGFP-53BP1^L1619A [5]): binds
- binding (eGFP-53BP1^L1619A [6]): binds
Substance: eGFP-53BP1^L1619A (from UniProt Q12888 1-1972)

- binding (eGFP-53BP1^YY1258,1259AA [7]): binds
- binding (eGFP-53BP1^YY1258,1259AA [8]): binds
Substance: eGFP-53BP1^YY1258,1259AA (from UniProt Q12888 1-1972)
